# Experimental data reported in US20240366624A1, “METHODS AND COMPOSITIONS FOR TREATING THROMBOTIC DISEASE” (Washington University, priority 2023, published 2024).
# Sequences of proteins named here, by UniProt entry; tags and fusion partners are left off. Residues count along the entry.
# UniProt P07237, residues 18-508: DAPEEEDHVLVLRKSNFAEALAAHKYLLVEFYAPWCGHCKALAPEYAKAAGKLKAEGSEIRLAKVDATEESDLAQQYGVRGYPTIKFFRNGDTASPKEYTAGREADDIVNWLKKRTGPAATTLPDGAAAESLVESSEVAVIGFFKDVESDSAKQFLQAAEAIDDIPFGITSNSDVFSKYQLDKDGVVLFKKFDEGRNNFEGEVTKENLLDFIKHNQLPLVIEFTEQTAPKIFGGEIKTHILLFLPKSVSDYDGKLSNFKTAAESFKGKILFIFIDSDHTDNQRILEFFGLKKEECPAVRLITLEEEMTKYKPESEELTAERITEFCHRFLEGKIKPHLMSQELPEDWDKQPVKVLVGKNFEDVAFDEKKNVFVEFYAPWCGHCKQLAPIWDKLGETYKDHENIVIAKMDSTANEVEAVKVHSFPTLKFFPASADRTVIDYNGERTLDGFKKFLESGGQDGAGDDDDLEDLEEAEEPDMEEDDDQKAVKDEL
# UniProt Q9NYU2, residues 43-1555: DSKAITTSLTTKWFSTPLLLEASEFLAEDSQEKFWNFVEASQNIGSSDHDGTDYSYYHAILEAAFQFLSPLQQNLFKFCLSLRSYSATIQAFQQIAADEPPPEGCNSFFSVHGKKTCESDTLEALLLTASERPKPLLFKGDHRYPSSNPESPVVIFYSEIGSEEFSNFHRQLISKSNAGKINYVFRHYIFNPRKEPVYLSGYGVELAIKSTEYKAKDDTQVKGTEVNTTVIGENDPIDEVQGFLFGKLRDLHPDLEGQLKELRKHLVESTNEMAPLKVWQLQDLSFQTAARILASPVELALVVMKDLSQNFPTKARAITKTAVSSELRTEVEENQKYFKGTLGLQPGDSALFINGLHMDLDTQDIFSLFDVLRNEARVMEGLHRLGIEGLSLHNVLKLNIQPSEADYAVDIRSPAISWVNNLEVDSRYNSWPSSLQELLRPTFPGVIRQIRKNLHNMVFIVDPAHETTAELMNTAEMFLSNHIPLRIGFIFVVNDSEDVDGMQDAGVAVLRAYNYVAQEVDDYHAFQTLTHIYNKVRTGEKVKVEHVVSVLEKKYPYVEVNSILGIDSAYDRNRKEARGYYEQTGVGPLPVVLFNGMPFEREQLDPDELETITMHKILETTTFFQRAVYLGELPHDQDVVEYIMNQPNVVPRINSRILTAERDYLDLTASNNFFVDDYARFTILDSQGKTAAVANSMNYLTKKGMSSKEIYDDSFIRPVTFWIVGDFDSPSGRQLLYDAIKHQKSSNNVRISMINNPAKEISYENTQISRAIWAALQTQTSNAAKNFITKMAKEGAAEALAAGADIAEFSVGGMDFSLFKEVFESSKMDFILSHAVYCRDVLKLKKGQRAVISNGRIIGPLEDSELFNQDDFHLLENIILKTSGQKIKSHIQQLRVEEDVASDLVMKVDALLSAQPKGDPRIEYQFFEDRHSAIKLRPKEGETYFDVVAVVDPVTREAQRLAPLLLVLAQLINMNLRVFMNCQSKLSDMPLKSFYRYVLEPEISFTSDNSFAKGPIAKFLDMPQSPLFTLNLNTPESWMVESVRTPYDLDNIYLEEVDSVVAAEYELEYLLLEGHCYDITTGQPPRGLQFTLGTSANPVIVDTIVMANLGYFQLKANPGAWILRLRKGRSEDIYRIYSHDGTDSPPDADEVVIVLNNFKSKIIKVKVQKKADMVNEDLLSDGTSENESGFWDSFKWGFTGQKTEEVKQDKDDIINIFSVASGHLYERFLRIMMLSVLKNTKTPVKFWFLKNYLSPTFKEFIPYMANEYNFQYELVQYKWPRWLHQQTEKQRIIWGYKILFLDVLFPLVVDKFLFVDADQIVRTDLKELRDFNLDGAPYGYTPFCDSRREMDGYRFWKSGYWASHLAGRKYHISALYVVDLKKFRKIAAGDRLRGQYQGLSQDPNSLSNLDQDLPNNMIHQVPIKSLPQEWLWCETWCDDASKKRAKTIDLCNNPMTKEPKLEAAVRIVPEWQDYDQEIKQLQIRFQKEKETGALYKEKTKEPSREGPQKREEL
# UniProt Q14677: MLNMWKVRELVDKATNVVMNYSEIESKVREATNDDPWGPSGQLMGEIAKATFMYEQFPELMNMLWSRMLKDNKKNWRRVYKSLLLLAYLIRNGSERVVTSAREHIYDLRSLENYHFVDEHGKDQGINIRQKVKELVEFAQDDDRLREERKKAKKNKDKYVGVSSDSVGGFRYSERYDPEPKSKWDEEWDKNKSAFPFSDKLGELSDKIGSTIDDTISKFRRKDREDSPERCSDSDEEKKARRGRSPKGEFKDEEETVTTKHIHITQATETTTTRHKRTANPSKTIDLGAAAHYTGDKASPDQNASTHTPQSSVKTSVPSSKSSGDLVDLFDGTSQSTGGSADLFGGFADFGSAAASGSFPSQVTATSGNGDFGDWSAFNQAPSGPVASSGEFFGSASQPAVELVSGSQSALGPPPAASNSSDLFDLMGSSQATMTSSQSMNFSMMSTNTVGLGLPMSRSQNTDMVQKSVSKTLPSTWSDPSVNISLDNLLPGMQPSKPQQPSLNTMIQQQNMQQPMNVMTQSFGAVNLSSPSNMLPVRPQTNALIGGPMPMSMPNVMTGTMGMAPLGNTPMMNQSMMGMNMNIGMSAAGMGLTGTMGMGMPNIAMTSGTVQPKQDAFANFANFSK
# UniProt O14545, residues 2-582: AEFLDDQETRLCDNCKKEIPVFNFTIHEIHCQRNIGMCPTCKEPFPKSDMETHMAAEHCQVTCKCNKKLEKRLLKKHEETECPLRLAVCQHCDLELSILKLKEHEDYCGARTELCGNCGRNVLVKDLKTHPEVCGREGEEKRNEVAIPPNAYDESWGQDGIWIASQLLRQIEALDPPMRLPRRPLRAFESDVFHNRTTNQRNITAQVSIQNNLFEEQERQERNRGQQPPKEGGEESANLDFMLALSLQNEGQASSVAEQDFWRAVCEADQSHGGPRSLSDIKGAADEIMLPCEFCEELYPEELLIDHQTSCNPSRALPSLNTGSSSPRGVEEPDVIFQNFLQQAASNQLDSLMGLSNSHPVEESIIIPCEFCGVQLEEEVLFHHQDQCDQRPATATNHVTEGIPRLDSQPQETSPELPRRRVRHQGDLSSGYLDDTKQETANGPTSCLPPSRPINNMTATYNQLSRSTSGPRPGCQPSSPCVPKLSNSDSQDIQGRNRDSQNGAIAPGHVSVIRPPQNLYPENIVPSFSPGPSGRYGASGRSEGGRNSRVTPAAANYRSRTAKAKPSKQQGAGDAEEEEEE
# UniProt Q13576: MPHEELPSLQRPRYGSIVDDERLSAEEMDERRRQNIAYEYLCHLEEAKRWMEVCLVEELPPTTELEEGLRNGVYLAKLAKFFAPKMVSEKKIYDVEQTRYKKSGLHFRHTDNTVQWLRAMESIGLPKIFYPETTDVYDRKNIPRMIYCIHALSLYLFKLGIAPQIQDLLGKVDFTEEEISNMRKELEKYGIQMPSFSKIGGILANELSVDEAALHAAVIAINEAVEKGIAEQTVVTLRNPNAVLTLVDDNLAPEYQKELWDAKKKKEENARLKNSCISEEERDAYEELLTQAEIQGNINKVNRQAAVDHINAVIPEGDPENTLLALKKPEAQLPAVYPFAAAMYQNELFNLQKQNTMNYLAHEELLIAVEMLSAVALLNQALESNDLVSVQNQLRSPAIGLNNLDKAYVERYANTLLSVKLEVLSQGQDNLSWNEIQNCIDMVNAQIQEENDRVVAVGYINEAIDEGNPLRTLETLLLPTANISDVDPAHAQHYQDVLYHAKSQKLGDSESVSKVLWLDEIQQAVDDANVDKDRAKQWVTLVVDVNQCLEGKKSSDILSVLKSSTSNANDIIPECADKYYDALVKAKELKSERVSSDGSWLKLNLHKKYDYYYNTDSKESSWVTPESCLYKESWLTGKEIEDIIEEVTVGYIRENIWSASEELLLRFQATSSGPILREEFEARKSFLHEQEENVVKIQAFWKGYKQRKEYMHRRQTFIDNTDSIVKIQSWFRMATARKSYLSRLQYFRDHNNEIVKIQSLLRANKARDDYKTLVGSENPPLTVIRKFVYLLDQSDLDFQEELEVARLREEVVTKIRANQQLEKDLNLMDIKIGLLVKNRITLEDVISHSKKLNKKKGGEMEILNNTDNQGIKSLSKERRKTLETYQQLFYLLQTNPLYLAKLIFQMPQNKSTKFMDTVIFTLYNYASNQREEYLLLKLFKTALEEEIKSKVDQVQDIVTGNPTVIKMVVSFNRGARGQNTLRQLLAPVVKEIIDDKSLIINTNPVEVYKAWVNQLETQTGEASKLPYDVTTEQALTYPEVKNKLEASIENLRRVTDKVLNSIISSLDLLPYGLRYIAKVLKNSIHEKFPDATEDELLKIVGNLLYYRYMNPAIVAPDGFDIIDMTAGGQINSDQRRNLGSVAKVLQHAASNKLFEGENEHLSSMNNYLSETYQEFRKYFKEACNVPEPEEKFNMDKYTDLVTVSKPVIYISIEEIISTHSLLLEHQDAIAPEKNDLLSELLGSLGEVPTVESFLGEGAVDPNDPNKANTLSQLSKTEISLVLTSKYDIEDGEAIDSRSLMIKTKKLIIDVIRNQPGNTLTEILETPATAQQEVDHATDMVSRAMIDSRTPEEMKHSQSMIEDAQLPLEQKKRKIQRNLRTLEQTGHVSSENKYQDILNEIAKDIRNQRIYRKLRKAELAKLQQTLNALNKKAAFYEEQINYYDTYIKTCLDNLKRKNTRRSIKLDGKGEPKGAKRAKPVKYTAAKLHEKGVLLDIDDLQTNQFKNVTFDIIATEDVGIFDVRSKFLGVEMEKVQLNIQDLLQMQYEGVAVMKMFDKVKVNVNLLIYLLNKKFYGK
# UniProt Q9HCN6, residues 21-339: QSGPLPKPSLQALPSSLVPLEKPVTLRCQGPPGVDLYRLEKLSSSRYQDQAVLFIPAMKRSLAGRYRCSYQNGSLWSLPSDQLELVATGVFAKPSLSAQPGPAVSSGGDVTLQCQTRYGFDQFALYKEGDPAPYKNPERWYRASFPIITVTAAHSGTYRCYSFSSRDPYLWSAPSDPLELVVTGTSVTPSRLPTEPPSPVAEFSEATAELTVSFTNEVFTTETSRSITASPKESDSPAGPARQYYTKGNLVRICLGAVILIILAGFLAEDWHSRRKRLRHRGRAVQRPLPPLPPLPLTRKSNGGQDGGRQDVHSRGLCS
# UniProt P60174, residues 2-249: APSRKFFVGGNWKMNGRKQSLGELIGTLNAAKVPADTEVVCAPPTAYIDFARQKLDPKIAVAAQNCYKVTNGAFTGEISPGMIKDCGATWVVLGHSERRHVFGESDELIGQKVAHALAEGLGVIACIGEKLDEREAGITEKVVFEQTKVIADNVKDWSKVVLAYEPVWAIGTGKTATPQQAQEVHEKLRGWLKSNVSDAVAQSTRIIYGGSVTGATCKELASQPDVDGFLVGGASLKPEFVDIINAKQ
# UniProt P07359, residues 17-652: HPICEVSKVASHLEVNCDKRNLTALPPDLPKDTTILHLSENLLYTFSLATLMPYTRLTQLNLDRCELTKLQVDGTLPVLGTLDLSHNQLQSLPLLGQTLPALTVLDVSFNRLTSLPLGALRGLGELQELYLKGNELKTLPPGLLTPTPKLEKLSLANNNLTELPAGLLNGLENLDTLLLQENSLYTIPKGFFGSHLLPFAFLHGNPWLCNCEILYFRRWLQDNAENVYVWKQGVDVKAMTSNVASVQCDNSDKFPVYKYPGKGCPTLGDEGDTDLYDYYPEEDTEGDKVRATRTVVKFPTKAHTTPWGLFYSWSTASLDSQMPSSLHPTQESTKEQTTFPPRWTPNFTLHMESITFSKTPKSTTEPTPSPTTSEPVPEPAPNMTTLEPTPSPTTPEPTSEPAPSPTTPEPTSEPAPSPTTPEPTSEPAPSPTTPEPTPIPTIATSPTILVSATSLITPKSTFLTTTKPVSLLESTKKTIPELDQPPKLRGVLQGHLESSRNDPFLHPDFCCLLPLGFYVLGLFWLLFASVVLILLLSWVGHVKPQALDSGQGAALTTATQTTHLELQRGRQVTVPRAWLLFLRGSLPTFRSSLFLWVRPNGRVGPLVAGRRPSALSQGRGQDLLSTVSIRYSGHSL
# Legend:
# [1] = target: T1, human platelet ERO1α (human) (UniProt Q96HE7); assay: co-immunoprecipitation of ERO1α from lysates of resting and thrombin-activated human platelets, mass spectrometry; volcano plot thrombin versus no thrombin
# T1 sequence (looked up): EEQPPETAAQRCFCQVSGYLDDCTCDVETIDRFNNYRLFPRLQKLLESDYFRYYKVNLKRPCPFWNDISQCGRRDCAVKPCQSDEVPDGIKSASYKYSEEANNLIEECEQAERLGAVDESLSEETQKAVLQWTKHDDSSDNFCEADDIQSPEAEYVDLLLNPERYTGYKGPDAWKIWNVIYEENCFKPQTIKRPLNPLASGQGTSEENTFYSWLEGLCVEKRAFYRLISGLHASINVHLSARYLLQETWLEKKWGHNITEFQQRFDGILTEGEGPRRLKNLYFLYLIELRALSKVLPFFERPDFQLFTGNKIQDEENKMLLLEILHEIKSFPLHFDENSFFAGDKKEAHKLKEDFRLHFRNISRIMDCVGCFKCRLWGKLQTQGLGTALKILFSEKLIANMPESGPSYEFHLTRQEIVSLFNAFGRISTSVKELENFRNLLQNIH
# [2] = target: human platelet PDI (protein disulfide isomerase) (human) (UniProt P07237); assay: co-immunoprecipitation with biotinylated polyclonal anti-PDI antibodies from lysates of resting and thrombin-treated human platelets, trypsin digestion, mass spectrometry; volcano plot thrombin versus no thrombin
binding [1],binding [2],Substance
binds,,DYNC1H1 (from UniProt Q14204)
,binds,uridine diphosphate-glucose GP glucosyltransferase 1 (from UniProt Q9NYU2 43-1555) (enzyme)
,binds,CLINT1 (from UniProt Q14677)
binds,,TRAFD1 (from UniProt O14545)
,binds,IQGAP2 (from UniProt Q13576)
,binds,GP6 (from UniProt Q9HCN6) (receptor)
,binds,LDHB (from UniProt P07195) (enzyme)
,binds,TPI1 (from UniProt P60174) (enzyme)
,binds,"GP Ibα (glycoprotein Ibα, human platelets) (from UniProt P07359 17-652) (receptor)"
,binds,β3 integrin (human platelets) (from UniProt P05106 27-788) (receptor)

# Results are given in words; binding and its absence hold for the method and conditions named. In cells and extracts the contact can be indirect. Here binding means that the protein was enriched with, or labelled near, the bait; the list need not be complete.
